# From the supplement of paper PMC8728848
# The other results are listed elsewhere or left out.
# How the values were obtained:
# Assay in all cases: glycan array binding signal (z-score within array); higher = stronger binding
# Conditions in all cases: glycan notation: IUPAC condensed, linker removed
# [1] = biological target: GlcNAc(b1-3)Gal(b1-4)GlcNAc(b1-3)Gal(b1-4)GlcNAc(b1-3)GalNAc
# Outline: (§1)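 Negative Z-scores can be read as non-binding. The Z-score is calculated within each array and then averaged across arrays of one protein sequence at different concentrations or buffers and across linkers. Arrays, 3228 in all, were curated from the Consortium for Functional Glycomics database and kept only where the protein sequence was available.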
# [2] = biological target: GlcNAc(b1-3)Gal(b1-4)GlcNAc(b1-3)GalNAc
# Outline: as §1
# [3] = biological target: GlcNAc(b1-3)Gal(b1-4)GlcNAc(b1-3)[GlcNAc(b1-3)Gal(b1-4)GlcNAc(b1-3)]GalNAc
# Outline: as §1
# [4] = biological target: GlcNAc(b1-3)Gal(b1-4)GlcNAc(b1-6)[Gal(b1-3)]GalNAc
# Outline: as §1
# [5] = biological target: GlcNAc(b1-3)Gal(b1-4)GlcNAc(b1-6)[GlcNAc(b1-3)Gal(b1-3)]GalNAc
# Outline: as §1
# [6] = biological target: GlcNAc(b1-3)Gal(b1-4)GlcNAc(b1-6)[GlcNAc(b1-3)]Gal(b1-4)GlcNAc
# Outline: as §1
# [7] = biological target: GlcNAc(b1-3)GalNAc
# Outline: as §1
# [8] = biological target: GlcNAc(b1-3)Man
# Outline: as §1
# [9] = biological target: GlcNAc(b1-3)[GlcNAc(b1-4)][GlcNAc(b1-6)]GlcNAc
# Outline: as §1
# [10] = biological target: GlcNAc(b1-3)[GlcNAc(b1-6)]Gal(b1-4)GlcNAc
# Outline: as §1
# [11] = biological target: GlcNAc(b1-3)[GlcNAc(b1-6)]GalNAc
# Outline: as §1
# [12] = biological target: GlcNAc(b1-4)Gal(b1-4)GlcNAc
# Outline: as §1
# [13] = biological target: GlcNAc(b1-4)GlcNAc
# Outline: as §1
# [14] = biological target: GlcNAc(b1-4)GlcNAc(b1-4)GlcNAc
# Outline: as §1
# [15] = biological target: GlcNAc(b1-4)GlcNAc(b1-4)GlcNAc(b1-4)GlcNAc(b1-4)GlcNAc
# Outline: as §1
# [16] = biological target: GlcNAc(b1-4)GlcNAc(b1-4)GlcNAc(b1-4)GlcNAc(b1-4)GlcNAc(b1-4)GlcNAc
# Outline: as §1
# [17] = biological target: GlcNAc(b1-4)[GlcNAc(b1-6)]GalNAc
# Outline: as §1
# [18] = biological target: GlcNAc(b1-6)Gal(b1-4)GlcNAc
# Outline: as §1
# [19] = biological target: GlcNAc(b1-6)GalNAc
# Outline: as §1
# [20] = biological target: GlcNAc6S(b1-3)Gal(b1-4)GlcNAc
# Outline: as §1
# [21] = biological target: Kdn(a2-3)Gal(b1-3)GalNAc
# Outline: as §1
# [22] = biological target: Kdn(a2-3)Gal(b1-3)GlcNAc
# Outline: as §1
# [23] = biological target: Kdn(a2-3)Gal(b1-4)Glc
# Outline: as §1
# [24] = biological target: Kdn(a2-3)Gal(b1-4)GlcNAc
# Outline: as §1
# [25] = biological target: Kdn(a2-3)Gal(b1-4)[Fuc(a1-3)]GlcNAc
# Outline: as §1
# [26] = biological target: Kdn(a2-6)Gal(b1-4)GlcNAc
# Outline: as §1
# [27] = biological target: Man(a1-2)Man(a1-2)Man(a1-3)Man
# Outline: as §1
# [28] = biological target: Man(a1-2)Man(a1-2)Man(a1-6)[Man(a1-3)]Man
# Outline: as §1
# [29] = biological target: Man(a1-2)Man(a1-3)Man
# Outline: as §1
# [30] = biological target: Man(a1-2)Man(a1-3)[Man(a1-2)Man(a1-6)]Man
# Outline: as §1
binder,measurement,setting,value
GS7807I-bvu-563-22-563 (Bacteroides vulgatus) (protein) IFSSCTDDFEKLNTSNIQVDPADLPFAAQCTEPMTYCYPPQQNMFQFWTNLTIDLYGGYFMTPNGNFTNGDMGENRGHSGGMYENYYLHIFNNTRRIIAQCDASGERGLSGVMRIVQAYGTLMTTDAYGPIPYSSILSGENEVYFEFDSQKDLYKAMLEDLSTAITDISAMGADEIAKLKSFDCWCNGDKDLWVKIANTMKLRMALRLSKRETEAGNAGMNLKAIATEAAQNTLATVNKDILIDKSLENEMWLMFNWGDCGFNANLVTIMSGTKDPRQPLYMTLNTGDIKNEAGTTTVAANSQYLGIRFASGLPAKPNSWGNFSGWIQGNNGSSYSMPLPIMKAAEAYFLLAEAKLRWDIGSESVKNLYENGIRVSMTNELAYRGAYAGIKEYPEGAVDAYINGTSTQIDYTDPIKAELSTPAVNKLSVKWDESASNEEKLERIITQKWLALFPLSTEGWAEQRRTGYPRFFPAFVNESNGAVNTEEGVRRVIYSSQAYDANAKGVEGGIKLLDEENSSKFGISGDKGGTHLWWDNADKGNF,glycan array binding signal (z-score),[1],-0.202
same,glycan array binding signal (z-score),[2],0.129
same,glycan array binding signal (z-score),[3],0.595
same,glycan array binding signal (z-score),[4],-0.16
same,glycan array binding signal (z-score),[5],0.348
same,glycan array binding signal (z-score),[6],-0.101
same,glycan array binding signal (z-score),[7],-0.124
same,glycan array binding signal (z-score),[8],-0.754
same,glycan array binding signal (z-score),[9],-0.373
same,glycan array binding signal (z-score),[10],-0.01
same,glycan array binding signal (z-score),[11],-0.559
same,glycan array binding signal (z-score),[12],0.003
same,glycan array binding signal (z-score),[13],-0.709
same,glycan array binding signal (z-score),[14],0.292
same,glycan array binding signal (z-score),[15],-0.951
same,glycan array binding signal (z-score),[16],-0.905
same,glycan array binding signal (z-score),[17],0.44
same,glycan array binding signal (z-score),[18],-0.053
same,glycan array binding signal (z-score),[19],-0.136
same,glycan array binding signal (z-score),[20],-0.815
same,glycan array binding signal (z-score),[21],-0.021
same,glycan array binding signal (z-score),[22],0.242
same,glycan array binding signal (z-score),[23],-0.657
same,glycan array binding signal (z-score),[24],0.192
same,glycan array binding signal (z-score),[25],-0.492
same,glycan array binding signal (z-score),[26],-0.077
same,glycan array binding signal (z-score),[27],0.28
same,glycan array binding signal (z-score),[28],-0.59
same,glycan array binding signal (z-score),[29],1.83
same,glycan array binding signal (z-score),[30],-0.421

# As a short view, some entries already given.
binder,measurement,setting,value
GS7807I-bvu-563-22-563 (Bacteroides vulgatus) (protein) IFSSCTDDFEKLNTSNIQVDPADLPFAAQCTEPMTYCYPPQQNMFQFWTNLTIDLYGGYFMTPNGNFTNGDMGENRGHSGGMYENYYLHIFNNTRRIIAQCDASGERGLSGVMRIVQAYGTLMTTDAYGPIPYSSILSGENEVYFEFDSQKDLYKAMLEDLSTAITDISAMGADEIAKLKSFDCWCNGDKDLWVKIANTMKLRMALRLSKRETEAGNAGMNLKAIATEAAQNTLATVNKDILIDKSLENEMWLMFNWGDCGFNANLVTIMSGTKDPRQPLYMTLNTGDIKNEAGTTTVAANSQYLGIRFASGLPAKPNSWGNFSGWIQGNNGSSYSMPLPIMKAAEAYFLLAEAKLRWDIGSESVKNLYENGIRVSMTNELAYRGAYAGIKEYPEGAVDAYINGTSTQIDYTDPIKAELSTPAVNKLSVKWDESASNEEKLERIITQKWLALFPLSTEGWAEQRRTGYPRFFPAFVNESNGAVNTEEGVRRVIYSSQAYDANAKGVEGGIKLLDEENSSKFGISGDKGGTHLWWDNADKGNF,glycan array binding signal (z-score),[3],0.595
same,glycan array binding signal (z-score),[4],-0.16
same,glycan array binding signal (z-score),[5],0.348
same,glycan array binding signal (z-score),[6],-0.101
same,glycan array binding signal (z-score),[7],-0.124
same,glycan array binding signal (z-score),[8],-0.754
